Measurements reported in PubChem BioAssay AID1259405 (NCATS, 2018)

Test: 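Knock-downs that lift recombinant protein yield in hamster ovary cells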 (primary screen)
System: Chinese hamster CHO-K1 ovary cells with stable secreted eGFP expression
Reagent: single siRNA against mouse genes, 0.8 pmol siRNA per well (2 µl of 400 nM stock)
Duration: 3 days
Measured: 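Percent of the per-plate non-targeting control median for intracellular GFP per well by laser scanning cytometry and for cell viability by ATP luminescence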
Reading the numbers: GFP, % of control: higher = more GFP per well, higher productivity; viability (ATP), % of control: higher = more viable cells (more ATP)
Hit rule: 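Called active when intracellular GFP, relative to negative control, is at or above 120%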
In all, the deposit lists about 50,000 reagents; shown is a part drawn at random. Of all reagents, about 4,000 (8%) got an active call. 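Mouse siRNA library applied to hamster cells; one well for each siRNA.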 Unmarked entries are inactive. Reagents against one gene are numbered here. No sequences are given here.

| target gene | reagent no. | GFP, % of control | viability (ATP), % of control |
| --- | --- | --- | --- |
| Ifnz | 1 | 45 | 63.3 |
| Ifnz | 2 | 68.7 | 58.6 |
| Ifnz | 3 | 91.6 | 64.7 |
| Cacna1a | 1 | 40.7 | 35.3 |
| Cacna1a | 2 | 74.2 | 69.1 |
| Cacna1a | 3 | 82.7 | 86.7 |
| Krt72 | 1 | 50 | 35.1 |
| Krt72 | 2 | 57.5 | 60.7 |
| Krt72 | 3 | 75.1 | 56.8 |
| Tnxb | 1 | 140 (active) | 63.5 |
| Tnxb | 2 | 92.3 | 88.2 |
| Gm5148 | 1 | 99.3 | 74.3 |
| Gm5148 | 2 | 69.4 | 79.3 |
| Gm5148 | 3 | 63 | 57.9 |
| Dpm2 | 1 | 86.2 | 101 |
| Dpm2 | 2 | 36.4 | 46.1 |
| Qki | 1 | 93.3 | 72.1 |
| Qki | 2 | 69.4 | 66.6 |
| Hsbp1 | 1 | 48.6 | 55.5 |
| Hsbp1 | 2 | 111 | 80.6 |
| Hsbp1 | 3 | 108 | 95 |
| Or14j1 | 1 | 48.3 | 63 |
| Or14j1 | 2 | 52.2 | 77.6 |
| Or14j1 | 3 | 70.8 | 58.8 |
| Muc6 | 1 | 50.1 | 37 |
| Muc6 | 2 | 57.8 | 73 |
| Muc6 | 3 | 85.3 | 63.8 |
| Phip | 1 | 84.8 | 72.5 |
| Phip | 2 | 55.2 | 56.7 |
| Phip | 3 | 130 (active) | 109 |
| Sap130 | 1 | 66.4 | 53.2 |
| Sap130 | 2 | 101 | 87.8 |
| Sap130 | 3 | 26.2 | 43.1 |
| Or9s18 | 1 | 54.5 | 63.8 |
| Or9s18 | 2 | 88.2 | 85.8 |
| Or9s18 | 3 | 69.9 | 87 |
| Kpna2 | 1 | 122 (active) | 75.8 |
| Kpna2 | 2 | 49.7 | 50.5 |
| Kpna2 | 3 | 79 | 70.8 |
| Ghrl | 1 | 65.7 | 61.4 |
| Ghrl | 2 | 78.2 | 65.1 |
| Ghrl | 3 | 81.4 | 46.8 |
| Krtap12-1 | 1 | 64.3 | 79.8 |
| Krtap12-1 | 2 | 61.9 | 58.8 |
| Krtap12-1 | 3 | 110 | 81.7 |
| Zscan12 | 1 | 71.1 | 34.6 |
| Zscan12 | 2 | 67.1 | 62.5 |
| Abi2 | 1 | 115 | 93.2 |
| Abi2 | 2 | 78.2 | 97.2 |
| Abi2 | 3 | 104 | 95.1 |
| Cbln2 | 1 | 35.1 | 45.3 |
| Cbln2 | 2 | 32.2 | 36.9 |
| Cbln2 | 3 | 85.4 | 67.1 |
| Or5p64 | 1 | 89.4 | 87.5 |
| Or5p64 | 2 | 60.9 | 59.8 |
| Or5p64 | 3 | 67.4 | 49.5 |
| Mettl27 | 1 | 64.2 | 61.4 |
| Mettl27 | 2 | 91.1 | 76.9 |
| Mettl27 | 3 | 48.3 | 65.1 |
| Ap2a2 | 1 | 102 | 93.7 |
| Ap2a2 | 2 | 55.3 | 85 |
| Myl6b | 1 | 109 | 79.6 |
| Myl6b | 2 | 89 | 80.7 |
| Ost4 | 1 | 44.4 | 20.9 |
| Ost4 | 2 | 34.5 | 40.2 |
| Ost4 | 3 | 87.5 | 83.1 |
| Igdcc3 | 1 | 80.2 | 47.8 |
| Igdcc3 | 2 | 68.2 | 48 |
| Igdcc3 | 3 | 110 | 108 |
| Sema6c | 1 | 89 | 71.5 |
| Sema6c | 2 | 68.2 | 83 |
| Sema6c | 3 | 86.4 | 115 |
| Irx3 | 1 | 66.8 | 77.9 |
| Irx3 | 2 | 76.7 | 75.1 |
| Irx3 | 3 | 108 | 106 |
| Pxdc1 | 1 | 107 | 94.6 |
| Pxdc1 | 2 | 68.3 | 71.9 |
| Pxdc1 | 3 | 56.3 | 59.7 |
| Slc25a26 | 1 | 36.7 | 43.3 |
| Slc25a26 | 2 | 86.7 | 95.6 |
| Slc25a26 | 3 | 18.1 | 11.1 |
| Spart | 1 | 42.8 | 51.6 |
| Spart | 2 | 81 | 109 |
| Spart | 3 | 106 | 79.9 |

Just “viability (ATP), % of control”, for 14 of the entries above:
Ghrl #2 = 65.1
Ghrl #3 = 46.8
Krtap12-1 #1 = 79.8
Krtap12-1 #2 = 58.8
Krtap12-1 #3 = 81.7
Zscan12 #1 = 34.6
Zscan12 #2 = 62.5
Abi2 #1 = 93.2
Abi2 #2 = 97.2
Abi2 #3 = 95.1
Cbln2 #1 = 45.3
Cbln2 #2 = 36.9
Cbln2 #3 = 67.1
Or5p64 #1 = 87.5
